Assay results from PubChem BioAssay AID588590 (National Center for Advancing Translational Sciences (NCATS), 2011).
About 4,000 (1%) of roughly 390,000 compounds were called active. The shares of active, inactive and inconclusive entries below differ from those in the screen. Calls come from the whole dose curve; as a rule, active = well fitted inhibition curve with a large enough effect; inconclusive = small, poorly fitted or top-dose-only effect, or another doubt; inactive = no such curve, though single readings can be large or run the other way. Potencies of inconclusive entries are doubtful fits and often do not repeat.
Potency is the fitted concentration of half-maximal effect.

By UniProt entry, the sequences of proteins in these tests, tags left out. Where a name states a change or a piece, a line headed by the entry shows the natural chain unless it says otherwise.
UniProt Q9UNA4: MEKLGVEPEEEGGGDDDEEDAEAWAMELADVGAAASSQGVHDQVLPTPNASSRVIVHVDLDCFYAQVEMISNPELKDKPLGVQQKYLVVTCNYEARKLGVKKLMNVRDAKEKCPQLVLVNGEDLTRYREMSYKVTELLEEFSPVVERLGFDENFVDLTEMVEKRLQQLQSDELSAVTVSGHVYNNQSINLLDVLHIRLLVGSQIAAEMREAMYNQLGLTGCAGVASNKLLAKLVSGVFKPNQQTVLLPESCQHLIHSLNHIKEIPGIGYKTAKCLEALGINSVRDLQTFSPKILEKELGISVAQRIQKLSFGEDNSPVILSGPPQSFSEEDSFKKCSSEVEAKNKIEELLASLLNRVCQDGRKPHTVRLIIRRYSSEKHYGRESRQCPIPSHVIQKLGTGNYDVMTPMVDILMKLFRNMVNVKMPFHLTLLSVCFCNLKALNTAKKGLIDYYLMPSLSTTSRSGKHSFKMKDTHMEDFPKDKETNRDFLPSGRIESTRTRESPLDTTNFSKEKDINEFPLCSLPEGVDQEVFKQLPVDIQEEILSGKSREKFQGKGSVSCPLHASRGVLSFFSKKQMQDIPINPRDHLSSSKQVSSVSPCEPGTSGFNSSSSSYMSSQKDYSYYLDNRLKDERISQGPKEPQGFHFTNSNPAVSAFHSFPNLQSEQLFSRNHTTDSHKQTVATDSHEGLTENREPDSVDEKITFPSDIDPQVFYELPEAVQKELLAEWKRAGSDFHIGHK

Each compound was assayed against DNA polymerase iota (Homo sapiens) (UniProt Q9UNA4) (assay: qHTS for Inhibitors of Polymerase Iota). Details: Pol iota fluorescent replication assay, 10 min; series mostly up to 115 µM.
Method in brief: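 Pol iota at 10 nM preincubated 15 min with compounds at room temperature; reaction started with fluorescent substrate, 50 nM final. Fluorescence read kinetically at 0 and 10 min; buffer-only wells as negative control.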
In the case of `CCC(C)N(c1ccc(/C=C/c2ccnc3ccccc23)cc1)C(C)CC` (centres undefined), the Potency is reported as “inactive”.
For `C/C(N)=C(/C#N)C(=O)CSc1nnc(NC(C)C)s1`, the Potency was inconclusive: 14.1 µM [inhibitor, full curve, poor fit].
In the case of `Cc1cc(-c2ccccc2)[nH]c(=O)c1C#N`, the Potency is reported as “inactive”.
`CC(C)NC(=O)CSc1nnc(-c2ccc3ncccc3c2)n1C` was tested, and the Potency was inconclusive: 79.4 µM [inhibitor, single point].
`O=C(Nc1sccc1C(=O)NCc1ccco1)c1cccnc1` was tested, and the Potency was inconclusive: 56.2 µM [inhibitor, partial curve, poor fit].
In the case of `Cc1ccc(-c2cc(-c3ccco3)c(C#N)c(=O)[nH]2)cc1`, the Potency is reported as inconclusive: 8.91 µM [inhibitor, full curve, poor fit].
In the case of `O=C(OCC(=O)N1CCN(C(=O)c2ccco2)CC1)c1ccccc1OCc1ccc(Cl)cc1`, the Potency is reported as inconclusive: 39.8 µM [inhibitor, partial curve, poor fit].
In the case of `Clc1nc(NCc2ccco2)c2ccccc2n1`, the Potency is reported as “inactive”.
`Cc1ccc(-c2cn(CCN)c(-c3ccncc3)n2)cc1` was tested, and the Potency was active: 31.6 µM.
For `O=C(N/N=C/c1ccoc1)c1ccccc1F`, the Potency was inconclusive: 89.1 µM [inhibitor, single point].
In the case of `COc1ccc(CC2S/C(=C(\C#N)C(=O)NCc3ccco3)N(c3ccc(C)cc3)C2=O)cc1` (centres undefined), the Potency is reported as inconclusive: 31.6 µM [inhibitor, partial curve, poor fit].
For `O=C(OCC(=O)c1ccc[nH]1)c1ccc(F)c(S(=O)(=O)N2CCOCC2)c1`, the Potency was inconclusive: 0.708 µM [inhibitor, full curve, poor fit].
`CCOC(=O)N1CCC(NC(=O)c2cnn(-c3cccc(F)c3)c2-n2cccc2)CC1` was tested, and the Potency was “inactive”.
With `COc1ccccc1CNS(=O)(=O)c1ccc2[nH]cc(C(=O)O)c(=O)c2c1` the Potency was inconclusive: 12.6 µM [inhibitor, full curve, poor fit].
`CCN(CC(=O)NCCCN1CCOCC1)S(=O)(=O)c1ccc(F)cc1` was tested, and the Potency was “inactive”.
In the case of `COCCCNC(=O)c1ccccc1Oc1ccccc1`, the Potency is reported as “inactive”.
`COc1ccc(CCNC(=O)C(=O)NCC2OCCN2S(=O)(=O)c2ccc(F)cc2)cc1OC` (centres undefined) was tested, and the Potency was inconclusive: 70.8 µM [inhibitor, partial curve, poor fit].
In the case of `COc1ccccc1C1(CC(=O)N2CCOCC2)CCOC(C(C)C)C1` (centres undefined), the Potency is reported as inconclusive: 8.91 µM [inhibitor, single point].
In the case of `CCn1cc(C(=O)NN)c(=O)c2cc(F)c(N3CCOCC3)cc21`, the Potency is reported as inconclusive: 22.4 µM [inhibitor, partial curve, poor fit].
In the case of `O=C(CCS(=O)(=O)c1ccc(Br)cc1)Nc1ccc2c(c1)OCO2`, the Potency is reported as inconclusive: 44.7 µM [inhibitor, single point].
In the case of `CN(CC(=O)Nc1ccccc1F)S(=O)(=O)c1ccc2c(c1)c(=O)n(C)c(=O)n2C`, the Potency is reported as “inactive”.
`CCN1C(=O)c2cccc3c(S(=O)(=O)NCc4ccccc4)ccc1c23` was tested, and the Potency was inconclusive: 89.1 µM [inhibitor, single point].
In the case of `COc1ccc(CCC(=O)NCc2nc3cccnc3n2Cc2ccc(F)cc2)cc1`, the Potency is reported as “inactive”.
`CC(=O)c1ccc(S(=O)(=O)Nc2c(C)nn(C)c2C)cc1` was tested, and the Potency was inconclusive: 56.2 µM [inhibitor, partial curve, poor fit].
In the case of `CC(C)CN(C(=O)COC(=O)c1ccc([N+](=O)[O-])s1)c1c(N)n(Cc2ccccc2)c(=O)[nH]c1=O`, the Potency is reported as “inactive”.
For `Cc1c(NC(=O)C(C)OC(=O)c2c3c(nc4ccccc24)CCC3)c(=O)n(-c2ccccc2)n1C` (centres undefined), the Potency was active: 31.6 µM.
`CCCCc1c(C)nc2ccc(Br)cc2c1SC(N)N` was tested, and the Potency was inconclusive: 17.8 µM [inhibitor, full curve].
In the case of `Cc1ccccc1-n1nnnc1SC1CCOC1=O` (centres undefined), the Potency is reported as inconclusive: 8.91 µM [inhibitor, single point].
In the case of `CCc1ccccc1NC(=O)c1nnn(Cc2ccc(Cl)cc2)c1N`, the Potency is reported as “inactive”.
For `O=[N+]([O-])c1ccc2nc(Cl)nc(-c3ccccc3)c2c1`, the Potency was inconclusive: 28.2 µM [inhibitor, full curve, poor fit].
For `CC/C(=C\c1ccccc1)c1cccc2oc3ccccc3c12`, the Potency was “inactive”.
With `Cc1ccc(Cn2cc(C(=O)c3ccc4c(c3)OCO4)c(=O)c3cc(C)ccc32)cc1` the Potency was “inactive”.
In the case of `Cc1cccc(C)c1NC(=O)CN(C)C(=O)c1cccc(NS(=O)(=O)c2ccccc2)c1`, the Potency is reported as inconclusive: 100 µM [inhibitor, single point].
In the case of `O=C(CSc1nc2ccccc2c(=O)n1-c1ccc(F)cc1)NCc1ccco1`, the Potency is reported as inconclusive: 56.2 µM [inhibitor, partial curve, poor fit].
With `N#Cc1ccc(-c2ccco2)nc1SCC(=O)c1ccc(Cl)cc1` the Potency was inconclusive: 22.4 µM [inhibitor, full curve, poor fit].
For `Cc1cc(S(=O)(=O)N2CCN(c3ccccn3)CC2)c(C)cc1Cl`, the Potency was inconclusive: 0.794 µM [inhibitor, full curve, poor fit].
In the case of `CCOc1ccc(CCNc2nc3ccccc3n3c(C)nnc23)cc1OCC`, the Potency is reported as inconclusive: 70.8 µM [inhibitor, partial curve, poor fit].
In the case of `Nc1ccc2nc(-c3ccc(-c4nc5ccc(N)cc5[nH]4)cc3)[nH]c2c1`, the Potency is reported as inconclusive: 28.2 µM [inhibitor, single point].
In the case of `Cc1ccc(/C=C/C(=O)c2ccc(C)cc2)cc1`, the Potency is reported as “inactive”.
`C=CCSc1nnc(NC(=O)C2CC(=O)N(Cc3ccc(C)cc3)C2)s1` (centres undefined) was tested, and the Potency was inconclusive: 8.91 µM [inhibitor, partial curve, poor fit].
In the case of `O=C(O)c1cccc2c1C(=O)c1ccccc1-2`, the Potency is reported as “inactive”.
For `Cc1ccccc1C(=O)Nc1cccc(C(=O)OCc2cc(=O)n3ccsc3n2)c1`, the Potency was “inactive”.
`O=C(O)Cc1ccc(S(=O)(=O)N2CCCC2)s1` was tested, and the Potency was inconclusive: 56.2 µM [inhibitor, partial curve, poor fit].
`Cc1ccccc1OCC(O)Cn1nnc2ccccc21` (centres undefined) was tested, and the Potency was “inactive”.
With `Cc1ccc(C(=O)COC(=O)C(Cc2c[nH]c3ccccc23)NC(=O)c2ccc(C(C)(C)C)cc2)cc1` (centres undefined) the Potency was “inactive”.
With `COc1ccc(CNc2ccccc2SC)cc1OC` the Potency was inconclusive: 12.6 µM [inhibitor, full curve, poor fit].
In the case of `CSCC[C@H](Nc1ncnc2sc(C)c(C)c12)C(=O)O`, the Potency is reported as inconclusive: 11.2 µM [inhibitor, full curve, poor fit].
In the case of `O=C(NCc1ccccn1)C1Nc2ccc(OC(F)(F)F)cc2C2C=CCC12` (centres undefined), the Potency is reported as inconclusive: 10 µM [inhibitor, single point].
`O=C(Cc1cccs1)N1CCN(c2cccc(Cl)c2)CC1` was tested, and the Potency was inconclusive: 35.5 µM [inhibitor, partial curve].
`CCCc1nnc(NC(=O)c2ccncc2)s1` was tested, and the Potency was inconclusive: 89.1 µM [inhibitor, single point].
With `CCN(CC)C(=O)c1ncn(C)c1C(=O)N(CC)CC` the Potency was inconclusive: 50.1 µM [inhibitor, partial curve, poor fit].
`Cc1cccc(Oc2nc3c(c(=O)n(C)c(=O)n3C)n2Cc2ccccc2)c1C` was tested, and the Potency was “inactive”.
`Cc1cccc(Nc2nnc(SCC(O)=C(C#N)c3nc4ccccc4[nH]3)s2)c1` was tested, and the Potency was inconclusive: 10 µM [inhibitor, partial curve, poor fit].
`Cn1cnc2c(NC3CCCC3)ncnc21` was tested, and the Potency was inconclusive: 0.0035 µM [inhibitor, full curve, poor fit].
With `Cc1ccc(S(=O)(=O)O/N=C2/CCCc3occc32)cc1` the Potency was inconclusive: 22.4 µM [inhibitor, full curve, poor fit].
With `CC1=C(C(=O)Nc2ccc(C)cc2C)C(c2ccc(C(=O)O)cc2)n2nc(SCc3ccccc3)nc2N1` (centres undefined) the Potency was inconclusive: 89.1 µM [inhibitor, partial curve].
With `CC(=O)c1ccc(Nc2ccc([N+](=O)[O-])c3nonc23)cc1` the Potency was inconclusive: 25.1 µM [inhibitor, partial curve, poor fit].
With `Cn1c(SCC(=O)N2CCCc3ccccc32)ncc(C(=O)Nc2ccccc2)c1=O` the Potency was “inactive”.
For `O=C(/C=C/c1ccc([N+](=O)[O-])cc1)Nc1ncc([N+](=O)[O-])s1`, the Potency was inconclusive: 25.1 µM [inhibitor, full curve, poor fit].
In the case of `O=c1c(=O)n(Cc2ccc(Cl)cc2)ccn1Cc1ccc(F)cc1`, the Potency is reported as “inactive”.
`COc1cc(OC)c(C(=O)O/N=C(\N)c2ccccn2)cc1OC` was tested, and the Potency was “inactive”.
In the case of `O=C(OCC12CC3CC(CC(C3)C1)C2)c1ccc(NCc2cc(O)ccc2O)cc1`, the Potency is reported as “inactive”.
With `Cc1ccc(NC2=C/C(=N/S(=O)(=O)c3cccs3)c3ccccc3C2=O)cc1` the Potency was inconclusive: 44.7 µM [inhibitor, full curve].
`O=C(CSc1ncnc2c1oc1ccccc12)OCc1ccccc1` was tested, and the Potency was inconclusive: 25.1 µM [inhibitor, single point].
For `Oc1ccc(Br)cc1CNc1cccc2cccnc12`, the Potency was “inactive”.
With `Cc1ccc(C(=O)c2no[n+]([O-])c2C(=O)c2ccc(C)cc2)cc1` the Potency was inconclusive: 28.2 µM [inhibitor, partial curve].
For `O=C(C1CC(=O)N(C2CCCC2)C1)N1CCN(c2ccc(F)cc2)CC1` (centres undefined), the Potency was inconclusive: 2.51 µM [inhibitor, partial curve, poor fit].
For `Cn1nnnc1Sc1ncnc2scc(-c3cc4ccccc4o3)c12`, the Potency was inconclusive: 11.2 µM [inhibitor, partial curve, poor fit].
